# Measurements taken from patent publication US10440955B2, “Methods comprising a biocidal polyamine” (Curza Global, LLC, priority 2013, dated 2019).
# Test system: L-929 cells (ATCC CCL-1)
# Assay: Minimal Essential Media (MEM) Elution cytotoxicity test
# Type: cell-based
# Details: Table 9A
# Procedure: Summary: The Minimal Essential Media (MEM) Elution test was designed to determine the cytotoxicity of extractable substances. The test article was added to cell monolayers and incubated. The cell monolayers were examined and scored based on the degree of cellular destruction.
# Acceptance Criteria: The United States Pharmacopeia & National Formulary (USP <87>) states that the test article meets the requirements, or receives a passing score (Pass) if the reactivity grade is not greater than grade 2 or a mild reactivity.
# Acceptance criteria were based upon the negative and media controls receiving “0” reactivity grades and positive controls receiving a 3-4 reactivity grades (moderate to severe).
# The cell monolayers were examined microscopically. The wells were scored as to the degree of discernable morphological cytotoxicity on a relative scale of 0 to 4:
# The results from the three wells were averaged to give a final cytotoxicity score.
# […] This initial concentration was then diluted 1: 2, 1:4, 1:8, and 1:16. Multiple well cell culture plates were seeded with a verified quantity of industry standard L-929 cells (ATCC CCL-1) and incubated until approximately 80% confluent. The test articles and control extracts were added to the cell monolayers in triplicate. The cells were incubated at 37±1° C. with 5±1% CO2 for 48±3 hours.
structure (smiles),measurement,setting,value
"CC(C)(C)CC(C)(C)c1ccc(OCCOCC[N+](C)(C)Cc2ccccc2)cc1 [benzethonium chloride, reference compound]",Results Pass/Fail,3.125 μg/mL,"Fail (a numerical grade greater than 2 is considered a cytotoxic effect, or a failing score (Fail))"
same,Results Pass/Fail,6.25 μg/mL,"Fail (a numerical grade greater than 2 is considered a cytotoxic effect, or a failing score (Fail))"
same,Results Pass/Fail,12.5 μg/mL,"Fail (a numerical grade greater than 2 is considered a cytotoxic effect, or a failing score (Fail))"
same,Results Pass/Fail,25 μg/mL,"Fail (a numerical grade greater than 2 is considered a cytotoxic effect, or a failing score (Fail))"
same,Results Pass/Fail,1.563 (unit not given),"Fail (a numerical grade greater than 2 is considered a cytotoxic effect, or a failing score (Fail))"
